The test has as its target T1, FLAG-SAE2 expressed in U2OS cells (human) (UniProt Q9UBT2).
T1 sequence: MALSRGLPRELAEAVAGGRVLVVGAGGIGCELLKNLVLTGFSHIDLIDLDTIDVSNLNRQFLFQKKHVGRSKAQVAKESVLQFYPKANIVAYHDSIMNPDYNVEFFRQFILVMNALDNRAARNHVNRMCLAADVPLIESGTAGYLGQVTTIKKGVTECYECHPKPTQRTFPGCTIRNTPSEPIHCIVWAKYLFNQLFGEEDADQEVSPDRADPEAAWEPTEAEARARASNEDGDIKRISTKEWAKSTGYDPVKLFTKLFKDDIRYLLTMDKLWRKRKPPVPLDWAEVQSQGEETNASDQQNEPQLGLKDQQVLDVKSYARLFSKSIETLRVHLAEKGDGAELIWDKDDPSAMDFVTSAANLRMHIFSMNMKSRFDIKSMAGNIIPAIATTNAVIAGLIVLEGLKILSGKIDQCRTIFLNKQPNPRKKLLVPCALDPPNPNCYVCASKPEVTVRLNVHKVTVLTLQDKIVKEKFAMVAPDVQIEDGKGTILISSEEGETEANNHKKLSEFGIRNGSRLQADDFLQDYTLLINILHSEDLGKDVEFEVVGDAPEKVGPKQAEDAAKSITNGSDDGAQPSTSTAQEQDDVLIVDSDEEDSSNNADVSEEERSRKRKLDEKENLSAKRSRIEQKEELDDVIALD
Briefly: co-IP.

Protein sequences, listed by entry. Tags and fused reporters are not part of them.
UniProt Q9UBN7: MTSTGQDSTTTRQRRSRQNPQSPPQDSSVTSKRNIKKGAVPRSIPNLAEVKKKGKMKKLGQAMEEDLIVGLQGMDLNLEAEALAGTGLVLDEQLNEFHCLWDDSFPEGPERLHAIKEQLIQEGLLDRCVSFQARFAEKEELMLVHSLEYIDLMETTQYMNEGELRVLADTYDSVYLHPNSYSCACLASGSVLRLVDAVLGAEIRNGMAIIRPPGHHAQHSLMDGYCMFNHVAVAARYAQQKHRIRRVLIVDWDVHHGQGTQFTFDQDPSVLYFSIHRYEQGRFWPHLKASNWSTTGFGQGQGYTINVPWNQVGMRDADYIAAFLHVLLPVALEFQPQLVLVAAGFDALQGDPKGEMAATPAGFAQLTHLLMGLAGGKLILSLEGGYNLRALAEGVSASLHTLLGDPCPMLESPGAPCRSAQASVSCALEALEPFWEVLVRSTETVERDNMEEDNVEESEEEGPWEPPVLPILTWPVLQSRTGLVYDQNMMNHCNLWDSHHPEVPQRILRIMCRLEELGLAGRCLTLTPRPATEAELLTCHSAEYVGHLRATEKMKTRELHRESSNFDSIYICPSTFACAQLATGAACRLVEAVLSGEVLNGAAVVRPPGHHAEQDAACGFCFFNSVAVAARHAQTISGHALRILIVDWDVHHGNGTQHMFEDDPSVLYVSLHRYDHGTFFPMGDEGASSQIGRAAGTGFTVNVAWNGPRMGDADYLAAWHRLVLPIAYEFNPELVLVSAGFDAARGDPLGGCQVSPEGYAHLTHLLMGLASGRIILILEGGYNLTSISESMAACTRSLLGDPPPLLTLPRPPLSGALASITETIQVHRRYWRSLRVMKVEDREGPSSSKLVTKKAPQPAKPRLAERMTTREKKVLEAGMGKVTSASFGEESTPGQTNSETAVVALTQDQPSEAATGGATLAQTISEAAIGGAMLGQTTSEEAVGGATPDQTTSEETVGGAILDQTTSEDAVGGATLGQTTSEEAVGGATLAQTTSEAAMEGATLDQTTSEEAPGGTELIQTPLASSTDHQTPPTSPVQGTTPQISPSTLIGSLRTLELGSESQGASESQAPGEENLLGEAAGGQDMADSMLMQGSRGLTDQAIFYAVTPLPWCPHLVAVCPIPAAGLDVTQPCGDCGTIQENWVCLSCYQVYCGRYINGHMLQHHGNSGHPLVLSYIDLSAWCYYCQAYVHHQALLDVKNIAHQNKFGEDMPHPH

No constants are given. Whether binding was seen depends on the method and setting. Binding seen in cells or lysates may run through a third protein. Some binding calls cover weakened binding; strength is not graded here. Tags and fused reporters may be left off the sequences shown.

With “HDAC6, endogenous (from UniProt Q9UBN7 1-1215) (enzyme)”, the binding result is “binds”.

Source of the values: doi:10.1101/2022.03.18.484840.
